In all, about 6,900 compounds went through this assay and fewer than 10 were called active. The call rests on the fitted dose curve; in most records, active means well fitted curve in the direction sought with a large enough effect; inconclusive means small, poorly fitted or top-dose-only effect, or another doubt; inactive means no such curve, though single readings can be large or run the other way. This is one part of the list.
target: Metallo-beta-lactamase type 2 (Klebsiella pneumoniae) (UniProt C7C422); assay: qHTS to identify inhibitors of the New Delhi Metallo-beta-lactamase (NDM): primary screen against the NCATS Gemini Collection; conditions: NDM-1 enzyme, meropenem hydrolysis, absorbance 300 nm; at 38.4 µM (top of the series) unless noted; further: % of control where 0% means no effect
In short: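 Meropenem hydrolysis (50 uM final) by 2 nM NDM-1 read as 300 nm absorbance after 30 min, following >30 min compound–enzyme preincubation in HEPES pH 7.0 with 1 uM ZnSO4 and 0.01% Tween20.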

The chains behind the UniProt entries cited, without tags or fusion partners. Where a name states a change or a piece, a line headed by the entry shows the natural chain unless it says otherwise.
UniProt C7C422: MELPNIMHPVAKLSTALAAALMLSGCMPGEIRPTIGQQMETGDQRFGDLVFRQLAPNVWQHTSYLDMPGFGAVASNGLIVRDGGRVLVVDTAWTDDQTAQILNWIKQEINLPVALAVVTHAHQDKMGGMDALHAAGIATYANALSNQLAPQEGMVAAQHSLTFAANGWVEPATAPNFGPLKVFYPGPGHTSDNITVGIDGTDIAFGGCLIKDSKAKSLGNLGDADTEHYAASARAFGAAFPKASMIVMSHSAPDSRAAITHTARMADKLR

Activity % (negative = inhibition), inactive:
Cc1ccc([S+](=O)([O-])NC[C@@H]2CC[C@H]3C[C@@H]2C3(C)C)cc1 1.05% [at 57.5 µM]
O=C(Nc1ccccc1)N1CCC2(C1)C(=O)N(CCc1ccccc1)c1ccccc12 (stereo not drawn) -1.39%
C[C@@H](N)C(=O)N1CCC(C(=O)Nc2cccc(-c3cccc(Cl)c3)c2)CC1 -20.9%
c1ccc(CNc2cc(-c3cc(N4CCCCC4)ncn3)c3cc[nH]c3n2)nc1 0.144%
CCN(CC)c1ncccc1CNC(=O)Nc1cccc(OC)c1 -0.423%
CCC(=O)N1CCCC1c1nc(CCOCC2CCCC2)no1 (stereo not drawn) -6.49%
O=S(=O)(c1ccccc1)N1CCN(c2ccnc3ccnn23)CC1 36.7%
O=C(NC[C@H]1O[C@@H](CO)[C@@H](O)[C@H]1N1CCOCC1)c1cccs1 9.17% [at 57.5 µM]
c1ccc(CCc2nc3nccc(-c4cccnc4)n3n2)cc1 12.3%
Cn1ncc(CN2CC[C@@H](c3ccc4c(c3)OCO4)[C@H](O)C2)c1C1CC1 0.38%
CCn1cc(CN2CCC(N3C(=O)C4(CCCCC4)C3c3ccncc3)CC2)cn1 (stereo not drawn) -3%
CCNC(=O)N1CCC(N2C(=O)C3(CCCC3)C2c2ccccc2)CC1 (stereo not drawn) -1.81%
COc1cc(C)c(-c2nc(Cn3cccn3)c(C)o2)cc1C 11.1%
Cc1nn(-c2ccccc2)c2c1C(C(C)C)N(C1CN([S+](=O)([O-])c3cccc(C(F)(F)F)c3)C1)C2=O (stereo not drawn) 24.4%
O=C(NCc1ccccc1)c1cnc2n1CCN(Cc1ccccc1)CC2 -0.0693% [at 57.5 µM]
COc1ccc(-c2cc3nc4c(c(=O)n3[nH]2)CN(C(=O)c2ccc(C)nc2)CC4)cc1 -0.491%
CCn1cc(S(=O)(=O)N2CCC(C3CCN(C(=O)NC)CC3)C2)cn1 (stereo not drawn) -0.104%
Cc1cc(C)n(Cc2ccc(C(=O)N3CC4CC(C3)[C@H]3CCCC(=O)N3C4)o2)n1 (stereo partly drawn) 3.2%
COc1ccc(CC(=O)N2CCCC3(Cc4ccccc4CN3C(=O)C3CCCC3)C2)cc1 (stereo not drawn) 2.34%
CN(C)C[C@@H]1CN(C2CCOCC2)C[C@H]1NC(=O)c1nccc2ccccc12 -0.66%
COCCCN1CCC(CNc2nccc(-c3cnn(C)c3)n2)C1 (stereo not drawn) 5.91%
COc1ccc2cc1Nc1ccc(cc1)C[C@H](NCc1ccc3c(c1)CCO3)C(=O)N(C)[C@H](C(=O)NCCC(C)C)C2 -1.18%
COc1ccc2c(c1)C(CN1CCN(c3ccc4oc(C(=O)O)cc4c3Cl)CC1)=CC(C)(C)CO2 6.23%

Some of these compounds in order of SMILES length, low to high.
Activity % (negative = inhibition), inactive:
COCCCN1CCC(CNc2nccc(-c3cnn(C)c3)n2)C1 (stereo not drawn) 5.91%
CCn1cc(CN2CCC(N3C(=O)C4(CCCCC4)C3c3ccncc3)CC2)cn1 (stereo not drawn) -3%
COc1ccc(-c2cc3nc4c(c(=O)n3[nH]2)CN(C(=O)c2ccc(C)nc2)CC4)cc1 -0.491%
